PubChem BioAssay AID2685 (National Center for Advancing Translational Sciences (NCATS), 2010)
This is one part of the list. Shown are side measurements of this screen, not its main read-out; they come without a call. Compounds called inactive in the main read-out are mostly missing here. Words in brackets tell the shape of the fitted curve; partial curves, single points and poor fits give uncertain potencies.

Assay: qHTS Assay for Lipid Storage Modulators in Drosophila S3 Cells;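 on cell number change: cells counted by Cell Tracker Red CMTPX staining in the red channel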
Conditions: BODIPY lipid droplet fluorescence, 18-24 h; for cell number change: measured here: cell count max response, cells fed with added oleic acid
Method in brief: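 Drosophila S3 cells loaded with oleic acid (400 uM, as added) and compounds at several concentrations; lipid droplets imaged by 488-nm laser-scanning cytometry, 500–530 nm intensity and object ratio to cell channel. Percent activity normalized to 20 uM Triacsin C.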

[1] = measured here: cell number channel AC50, cells fed with added oleic acid
[2] = measured here: lipid fluorescence (Fed channel) AC50, cells fed with added oleic acid

| SMILES | cell number change [%] | AC50 [1] | AC50 [2] |
| --- | --- | --- | --- |
| COc1ccc2c(c1)-c1c(ssc1=S)C(C)(C)N2S(=O)(=O)c1ccc(C)cc1 | -84.9 | 8.2 µM [falling, partial curve] | 6.51 µM [falling, full curve] |
| Cc1cccc(C(=O)N(CCc2ccccc2)Cc2ccccc2)c1[N+](=O)[O-] | 3.78 | – | 29.1 µM [falling, single point] |
| COC(=O)N/N=C/c1cn(CCOc2cccc(OC)c2)c2ccccc12 | 28.8 | – | – |
| COc1ccc(-c2noc(N3CCC(C(=O)N(C)c4ccccc4C)CC3)n2)cc1 | -13.3 | – | – |
| COc1ccc(CNC(=O)C(c2ccncc2)N(C(=O)Cc2cccs2)c2cccc(C)c2)cc1 (configuration not stated) | -11.8 | – | 11.6 µM [falling, partial curve, poor fit] |
| CNC(=O)c1ncnnc1N(C)C(=O)NCc1ccccc1 | 8.01 | – | 0.092 µM [falling, full curve] |
| FC(F)(F)c1ccccc1NC(=S)N/N=C1\CC2CC=CC12 (configuration not stated) | 13.4 | 0.0411 µM [rising, full curve, poor fit] | 0.0058 µM [rising, full curve, poor fit] |
| CCOc1cccc2sc(Nc3nc4ccc(NC(C)=O)cc4s3)nc12 | -33.4 | 1.03 µM [falling, full curve] | 18.4 µM [falling, partial curve] |
| COc1ccc(N2CCN(S(=O)(=O)c3cc4c(cc3C)NC(=O)CO4)CC2)cc1 | -4.03 | – | – |
| COc1ccc(C(=O)N/N=C/c2cc3ccccc3[nH]c2=S)cc1 | – | 0.731 µM [rising, partial curve, poor fit] | 29.1 µM [falling, single point] |
| COc1cc(C(O)CO)ccc1O (configuration not stated) | -39.2 | 1.3 µM [falling, full curve, poor fit] | 29.1 µM [falling, single point] |
| O=C(C1=C(O)C(=O)N(CC2CCCO2)C1c1ccccc1)c1ccco1 (configuration not stated) | 10.5 | – | 3.55 µM [falling, single point] |
| O=C(NN=C1CCCC1)NC1CCCCC1 | 126 | 18.4 µM [rising, single point] | – |
| CCN1CCN(CC(=O)c2cc(OC)c(OC)c(OC)c2)CC1 | -12.1 | 6.51 µM [falling, single point] | – |
| Cc1cccc(/C(N)=N/OC(=O)c2cccc3ccccc23)c1 | -10.5 | – | – |
| CCCCNS(=O)(=O)c1ccc(OCC(=O)OC)cc1 | -0.244 | – | 6.51 µM [falling, single point] |
| Cc1ccc(C)c(S(=O)(=O)NC(CC(C)C)C(=O)O)c1 (configuration not stated) | – | – | 18.4 µM [rising, partial curve] |
| Cc1ccc(C(OC(=O)c2ccco2)C(=O)NCc2cccs2)cc1 (configuration not stated) | 9.16 | – | 0.326 µM [rising, full curve, poor fit] |
| CCc1ccc(NC(=O)COc2ccc(/C=C(/C#N)c3nc4ccccc4[nH]3)cc2OC)cc1 | -68.8 | 1.46 µM [falling, full curve] | 1.46 µM [falling, full curve] |
| O=C(Nc1nccs1)c1nc(-c2ccccc2)n(-c2ccccc2)n1 | -10.3 | – | 29.1 µM [rising, single point] |
| COc1ccc(OC)c(NC(=S)N(CCc2c(C)[nH]c3ccc(C)cc23)Cc2cccs2)c1 | 11.7 | – | – |

| SMILES | cell number change [%] | AC50 [1] | AC50 [2] |
| --- | --- | --- | --- |
| O=C(N=C1SCC(=O)N1c1ccccc1)c1ccco1 | 65.3 | 18.4 µM [rising, partial curve] | – |
| O=C(Nc1ccc(C(=O)O)cc1)Nc1cccc2ccccc12 | -12.4 | – | 0.231 µM [rising, full curve, poor fit] |
| Cn1c(=O)oc2cc(S(=O)(=O)NCc3ccc(C(=O)O)cc3)ccc21 | -14.7 | – | 3.66 µM [falling, full curve] |
| C(=C\c1ccccn1)/c1ccncc1 | 15.4 | – | 0.58 µM [rising, full curve, poor fit] |
| O=C(Nc1cccnc1)/C(N=Nc1c(Cl)cccc1Cl)=C(\O)c1ccccc1 | 30.3 | 29.1 µM [rising, single point] | 0.326 µM [rising, single point] |
| CC(CC(=O)Nc1ccc2c(c1)OCO2)c1ccccc1 (configuration not stated) | -9.12 | – | – |
| O=C1Nc2cc(Cl)c(Cl)cc2N(O)N1c1ccc(Cl)c(Cl)c1 | -44.3 | 29.1 µM [falling, single point] | 18.4 µM [rising, single point] |
| CCCC(C)C(=O)Nc1ccc(F)c(Cl)c1 (configuration not stated) | -2.94 | 6.51 µM [falling, single point] | – |
| CNc1nc(Oc2ccc(=O)n(C)n2)nc(N2CCOCC2)n1 | -37.5 | 36.6 µM [falling, single point] | 0.259 µM [falling, full curve, poor fit] |
| COc1cccc(Nc2nc(-c3sc(C)nc3C)cs2)c1 | -61.4 | – | – |
| Cc1cccc(C)c1OCc1cc(C(=O)N2CCN(c3ccccc3)CC2C)no1 (configuration not stated) | – | 0.00517 µM [rising, full curve, poor fit] | – |
| COc1ccccc1C(=O)Nc1ccnn1C1CCN(C(=O)C2CCOC2)CC1 (configuration not stated) | -56.1 | 32.6 µM [falling, partial curve, poor fit] | 2.31 µM [falling, partial curve] |
| O=C(/C=C/c1ccc(Cl)cc1)Nc1ccccc1N1CCOCC1 | 16.7 | 5.17 µM [falling, single point] | – |
| Cc1cc(C)cc(OCC(=O)OCC(=O)N(C)CC(=O)Nc2ccc(F)cc2)c1 | -34.4 | 5.17 µM [falling, full curve, poor fit] | 4.61 µM [falling, partial curve] |
| COC(=O)c1ccc(NC(=O)CSCc2ccccc2)cc1 | -47.3 | 29.1 µM [falling, single point] | – |
| CCNc1ccc(S(=O)(=O)N(C)C)cc1NCC(=O)Nc1ccccc1Cl | 11.9 | – | – |
| Cc1cc(OCC(=O)N2CCc3ccccc3C2)c2c(-c3ccccc3)cc(=O)oc2c1 | – | 6.51 µM [rising, single point] | 6.51 µM [rising, partial curve, poor fit] |
| CCCc1nn(C)c(C(=O)Nc2cccc(CC)c2)c1Cl | -48.7 | 18.4 µM [falling, single point] | 2.91 µM [falling, partial curve] |
| O=C(c1cc2c(s1)-c1ccccc1S(=O)(=O)C2)N1CCCC1 | 19 | 0.082 µM [rising, full curve, poor fit] | – |
| CC(C)c1nnc(NC(=O)CSc2nnc(NC(=O)c3c(F)cccc3F)s2)s1 | 7.67 | 0.651 µM [falling, single point] | 0.58 µM [falling, single point] |
| O=C(CCCN1C(=O)c2ccccc2C1=O)Nc1cccc(S(=O)(=O)NC2=NCCC2)c1 | 137 | 13 µM [rising, partial curve] | – |

2 records picked at random from those above:

| SMILES | cell number change [%] | AC50 [1] | AC50 [2] |
| --- | --- | --- | --- |
| O=C(Nc1cccnc1)/C(N=Nc1c(Cl)cccc1Cl)=C(\O)c1ccccc1 | 30.3 | 29.1 µM [rising, single point] | 0.326 µM [rising, single point] |
| CNc1nc(Oc2ccc(=O)n(C)n2)nc(N2CCOCC2)n1 | -37.5 | 36.6 µM [falling, single point] | 0.259 µM [falling, full curve, poor fit] |

Remaining list, next part:

| SMILES | cell number change [%] | AC50 [1] | AC50 [2] |
| --- | --- | --- | --- |
| O=C(COC(=O)c1ccc(Cl)nc1)c1ccc2c(c1)OCCO2 | -20.9 | 0.103 µM [falling, full curve, poor fit] | – |
| CCSc1ccccc1C(=O)NCc1ccc2c(c1)OCO2 | 6.76 | – | – |
| CCOC(=O)N/N=C/C(Cl)=C/c1ccccc1 | 27.7 | – | – |
| COc1cc(NC(=O)CSc2nc(C)c(C)c(C)n2)cc(OC)c1 | 9.28 | – | – |
| Nc1nc(NC(=O)c2ccco2)nn1-c1ccccc1 | 3.64 | – | 0.116 µM [falling, full curve] |
| Cc1nc(-c2ccccc2)sc1-c1nc(-c2cccnc2)ncc1S(=O)(=O)c1ccccc1 | 12.2 | – | – |
| CC(C)[C@H](NC(=O)N1c2ccccc2NC(=O)[C@@H]1C(C)C)C(=O)N[C@@H](C(=O)O)c1ccccc1 | – | – | 29.1 µM [rising, single point] |
| O=C(COC(=O)c1ccc(NC(=O)C2CC=CCC2C(=O)O)cc1)c1ccccc1 (configuration not stated) | -9.15 | – | – |
| COc1ccc(-n2nc([N+](=O)[O-])c(=NCCC3=CCCCC3)n2O)cc1 | 18.6 | – | 1.16 µM [rising, single point] |
| Cc1oc(-c2ccccc2F)nc1CS(=O)(=O)CC(=O)NC1CCCC1 | – | – | 20.6 µM [rising, single point] |
| CCOc1cc(C=C(C#N)C#N)ccc1Oc1ccc([N+](=O)[O-])cn1 | -31.4 | 14.6 µM [falling, single point] | 13 µM [falling, single point] |
| COC(=O)c1sccc1NC(=O)c1ccc(C#N)cc1 | 0.236 | – | 0.731 µM [falling, single point] |
| COc1ccc(S(=O)(=O)Nc2ccccc2C(=O)N2CCCC2)cc1C | -9.91 | – | 2.91 µM [rising, single point] |
| Cc1cc(NS(=O)(=O)Cc2ccccc2)cc(C)c1OCC(=O)N1CCOCC1 | -14.5 | – | 29.1 µM [falling, partial curve, poor fit] |
| Cc1ccc2nc(C3CCCCC3)[nH]c2c1 | -7.14 | – | 29.1 µM [falling, single point] |
| CCN(CC)c1ccc(NC(=O)COc2ccccc2C#N)cc1S(=O)(=O)Nc1ccccc1OC | 6.14 | – | – |
| Cc1ccc(N2C(=O)C(O)(C(F)(F)F)C3=C2CC(C)(C)CC3=O)cc1 (configuration not stated) | -8.28 | – | 0.731 µM [falling, partial curve, poor fit] |
| CC(C)Cn1c(-c2ccco2)n[nH]c1=S | 15.5 | – | 0.092 µM [rising, full curve, poor fit] |
| Cc1nn(C)c(Cl)c1S(=O)(=O)N[C@@H](c1ccccc1)[C@]1(C)C[C@H]1[C@@H](C)C(=O)Nc1ccc2ccccc2c1 | 18.9 | – | 16.4 µM [rising, single point] |

3 entries already listed, arranged by length of the SMILES, ascending:

| SMILES | cell number change [%] | AC50 [1] | AC50 [2] |
| --- | --- | --- | --- |
| Cc1ccc2nc(C3CCCCC3)[nH]c2c1 | -7.14 | – | 29.1 µM [falling, single point] |
| Nc1nc(NC(=O)c2ccco2)nn1-c1ccccc1 | 3.64 | – | 0.116 µM [falling, full curve] |
| CCN(CC)c1ccc(NC(=O)COc2ccccc2C#N)cc1S(=O)(=O)Nc1ccccc1OC | 6.14 | – | – |
